PubChem BioAssay AID652248 – Drosophila RNAi Screening Center, 2013
The whole screen tested 863 reagents; this is an unselected part. 32 of them (3.7%) count as active. 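Calls also used reproducibility and a similarity ranking whose scores are not deposited; many active genes show only modest elongated scores.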 A plus sign joins genes that one reagent is predicted to hit. Further read-outs or replicates are left out here. Reagent sequences are not shown. The record does not give: the amount of reagent, the time to read-out.

- Aim: 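Kinase and phosphatase regulators of cell lengthening and shape variety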 (primary screen)
- System: cultured Drosophila hemocytes
- Reagents: long dsRNA against Drosophila genes
- Read-out: 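Automated microscopy of stained actin, tubulin and nuclei; single-cell shape measures assigned to five reference shape types, giving a score per dsRNA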
- Scale: elongated score: higher = more elongated bipolar cells
- Hit rule: 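Hits show a significant increase of elongated cells; higher rank given where elongated cells rose as other shape types fell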

CG4733 [DRSC15634] scored elongated score, rep 1 = -0.53; inactive.
nmdyn-D7 [DRSC17016] showed elongated score, rep 1 = -0.53; inactive.
Silencing of CG16903 [DRSC18561] gave: elongated score, rep 1 = 11.6; inactive.
Against sti [DRSC09739], the values are elongated score, rep 1 = -0.53; inactive.
Silencing of sti [DRSC09740] gave: elongated score, rep 1 = -0.53; inactive.
With knock-down of CG1637 [DRSC18865], the record shows elongated score, rep 1 = 0.45; inactive.
CG1637 [DRSC19748] scored elongated score, rep 1 = -0.22; inactive.
For CG1637 [DRSC19749], the values are elongated score, rep 1 = 1.06; inactive.
After knock-down of CG1637 [DRSC29080], the screen gave elongated score, rep 1 = 3.41; inactive.
With knock-down of SNF4Agamma [DRSC13461] the results were elongated score, rep 1 = 1.22; inactive.
With knock-down of SNF4Agamma [DRSC13463] the results were elongated score, rep 1 = 0.18; inactive.
For SNF4Agamma [DRSC15879] the deposit lists elongated score, rep 1 = -0.53; inactive.
After knock-down of SNF4Agamma [DRSC16847] the results were elongated score, rep 1 = 0.2; inactive.
For Pp2B-14D [DRSC20270] the deposit lists elongated score, rep 1 = 5.67; inactive.
Pp2B-14D [DRSC23315] gave elongated score, rep 1 = -0.53; inactive.
After knock-down of CanB [DRSC18449], the screen gave elongated score, rep 1 = -0.53; inactive.
Against CanB [DRSC29220], the entry reads elongated score, rep 1 = 4.49; inactive.
Cdk12 [DRSC11836] scored elongated score, rep 1 = -0.14; inactive.
With knock-down of Cdk12 [DRSC23323] the results were elongated score, rep 1 = 1.52; inactive.
Silencing of Cdk12 [DRSC29623] gave: elongated score, rep 1 = 3; inactive.
For sktl [DRSC04715] the deposit lists elongated score, rep 1 = 2.83; inactive.
Silencing of Pkn [DRSC06810] resulted in: elongated score, rep 1 = -0.53; inactive.
Knock-down of Pkn [DRSC25936] resulted in: elongated score, rep 1 = 0.93; inactive.
Against Cib2 [DRSC04535] the deposit lists elongated score, rep 1 = 0.19; inactive.
For Sik2 [DRSC18522], the entry reads elongated score, rep 1 = -0.41; inactive.
Cdk5alpha [DRSC03290] scored elongated score, rep 1 = -0.53; inactive.
Cdk5alpha [DRSC23301] gave elongated score, rep 1 = -0.27; inactive.
After knock-down of tor [DRSC07707], the screen gave elongated score, rep 1 = -0.53; inactive.
Against Sac1 [DRSC08622], the entry reads elongated score, rep 1 = 0.13; inactive.
Sac1 [DRSC26886] showed elongated score, rep 1 = -0.53; inactive.
After knock-down of INPP5E [DRSC09723], the screen gave elongated score, rep 1 = -0.53; inactive.
Against CG1951 [DRSC15403] the deposit lists elongated score, rep 1 = -0.19; inactive.
Ptp52F [DRSC06717] scored elongated score, rep 1 = 1.07; inactive.
With knock-down of Vps15 [DRSC16553], the screen gave elongated score, rep 1 = 1.32; inactive.
After knock-down of Mkp + CG34140 [DRSC08585] the results were elongated score, rep 1 = 0.13; inactive.
Mkp + CG34140 [DRSC26000] gave elongated score, rep 1 = 2.5; inactive.
